# Laboratory results as given in the supplement of paper PMC8728848.
# Some of the results follow.
# B1: MCL (Mus musculus), Q9Z2H6 (protein)
# chain: MWLEESQMKSKGTRHPQLIPCVFAVVSISFLSACFISTCLVTHHYFLRWTRGSVVKLSDYHTRVTCIREEPQPGATGGTWTCCPVSWRAFQSNCYFPLNDNQTWHESERNCSGMSSHLVTINTEAEQNFVTQLLDKRFSYFLGLADENVEGQWQWVDKTPFNPHTVFWEKGESNDFMEEDCVVLVHVHEKWVWNDFPCHFEVRRICKLPGITFNWKPSK
# How the values were obtained:
# Experiment in all cases: glycan array binding signal (z-score within array); higher = stronger binding
# Details in all cases: glycan notation: IUPAC condensed, linker removed
# Gal3S(b1-4)GlcNAc = biological target: Gal3S(b1-4)GlcNAc
# Method in brief: (§1)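 Arrays were curated from the Consortium for Functional Glycomics database, 3228 in total, and kept only where the protein sequence was available. Binding is expressed as a within-array Z-score. This score was averaged across arrays of the same protein sequence at different concentrations or buffers and across linkers, and negative values can be read as non-binding.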
# Gal3S(b1-4)GlcNAc6S = biological target: Gal3S(b1-4)GlcNAc6S
# Method in brief: as §1
# [1] = biological target: Gal3S(b1-4)[Fuc(a1-3)]Glc
# Method in brief: as §1
# Gal3S4S(b1-4)GlcNAc = biological target: Gal3S4S(b1-4)GlcNAc
# Method in brief: as §1
# Gal3S6S(b1-4)GlcNAc = biological target: Gal3S6S(b1-4)GlcNAc
# Method in brief: as §1
# Gal3S6S(b1-4)GlcNAc6S = biological target: Gal3S6S(b1-4)GlcNAc6S
# Method in brief: as §1
# Gal4S(b1-4)GlcNAc = biological target: Gal4S(b1-4)GlcNAc
# Method in brief: as §1
# Gal4S6S(b1-4)GlcNAc = biological target: Gal4S6S(b1-4)GlcNAc
# Method in brief: as §1
# Gal6S(b1-4)Glc = biological target: Gal6S(b1-4)Glc
# Method in brief: as §1
# Gal6S(b1-4)Glc6S = biological target: Gal6S(b1-4)Glc6S
# Method in brief: as §1
# Gal6S(b1-4)GlcNAc = biological target: Gal6S(b1-4)GlcNAc
# Method in brief: as §1
# Gal6S(b1-4)GlcNAc6S = biological target: Gal6S(b1-4)GlcNAc6S
# Method in brief: as §1
# GalNAc(a1-3)Gal = biological target: GalNAc(a1-3)Gal
# Method in brief: as §1
# GalNAc(a1-3)GalNAc = biological target: GalNAc(a1-3)GalNAc
# Method in brief: as §1
# GalNAc(b1-3)Gal = biological target: GalNAc(b1-3)Gal
# Method in brief: as §1
# [2] = biological target: GalNAc(b1-3)Gal(a1-4)Gal(b1-4)GlcNAc
# Method in brief: as §1
# GalNAc(b1-3)GalNAc = biological target: GalNAc(b1-3)GalNAc
# Method in brief: as §1
# GalNAc(b1-4)GlcNAc = biological target: GalNAc(b1-4)GlcNAc
# Method in brief: as §1
# Glc(a1-4)Glc = biological target: Glc(a1-4)Glc
# Method in brief: as §1
# Glc(a1-6)Glc(a1-6)Glc = biological target: Glc(a1-6)Glc(a1-6)Glc
# Method in brief: as §1
# Glc(b1-4)Glc = biological target: Glc(b1-4)Glc
# Method in brief: as §1
# Glc(b1-6)Glc = biological target: Glc(b1-6)Glc
# Method in brief: as §1
# GlcA(b1-3)Gal = biological target: GlcA(b1-3)Gal
# Method in brief: as §1
# GlcA(b1-3)GlcNAc = biological target: GlcA(b1-3)GlcNAc
# Method in brief: as §1
# GlcA(b1-6)Gal = biological target: GlcA(b1-6)Gal
# Method in brief: as §1
# [3] = biological target: GlcNAc(a1-3)Gal(b1-4)GlcNAc
# Method in brief: as §1
# [4] = biological target: GlcNAc(a1-6)Gal(b1-4)GlcNAc
# Method in brief: as §1
# [5] = biological target: GlcNAc(b1-2)Gal(b1-3)GalNAc
# Method in brief: as §1
# [6] = biological target: GlcNAc(b1-2)Man(a1-3)[GlcNAc(b1-2)Man(a1-6)]Man(b1-4)GlcNAc(b1-4)GlcNAc
# Method in brief: as §1
# GlcNAc(b1-3)Gal = biological target: GlcNAc(b1-3)Gal
# Method in brief: as §1
# [7] = biological target: GlcNAc(b1-3)Gal(b1-3)GalNAc
# Method in brief: as §1
# GlcNAc(b1-3)Gal(b1-4)Glc = biological target: GlcNAc(b1-3)Gal(b1-4)Glc
# Method in brief: as §1
# [8] = biological target: GlcNAc(b1-3)Gal(b1-4)GlcNAc
# Method in brief: as §1
# [9] = biological target: GlcNAc(b1-3)Gal(b1-4)GlcNAc(b1-3)Gal(b1-4)GlcNAc
# Method in brief: as §1
# GlcNAc(b1-3)GalNAc = biological target: GlcNAc(b1-3)GalNAc
# Method in brief: as §1
# GlcNAc(b1-3)Man = biological target: GlcNAc(b1-3)Man
# Method in brief: as §1
# [10] = biological target: GlcNAc(b1-3)[GlcNAc(b1-4)][GlcNAc(b1-6)]GlcNAc
# Method in brief: as §1
# [11] = biological target: GlcNAc(b1-3)[GlcNAc(b1-6)]Gal(b1-4)GlcNAc
# Method in brief: as §1
# [12] = biological target: GlcNAc(b1-3)[GlcNAc(b1-6)]GalNAc
# Method in brief: as §1
# [13] = biological target: GlcNAc(b1-4)Gal(b1-4)GlcNAc
# Method in brief: as §1
# GlcNAc(b1-4)GlcNAc = biological target: GlcNAc(b1-4)GlcNAc
# Method in brief: as §1
# [14] = biological target: GlcNAc(b1-4)GlcNAc(b1-4)GlcNAc
# Method in brief: as §1
# [15] = biological target: GlcNAc(b1-4)GlcNAc(b1-4)GlcNAc(b1-4)GlcNAc(b1-4)GlcNAc
# Method in brief: as §1
# [16] = biological target: GlcNAc(b1-4)GlcNAc(b1-4)GlcNAc(b1-4)GlcNAc(b1-4)GlcNAc(b1-4)GlcNAc
# Method in brief: as §1
# [17] = biological target: GlcNAc(b1-4)[GlcNAc(b1-6)]GalNAc
# Method in brief: as §1
binder,measurement,setting,value
B1,glycan array binding signal (z-score),Gal3S(b1-4)GlcNAc,-0.202
same,glycan array binding signal (z-score),Gal3S(b1-4)GlcNAc6S,-0.308
same,glycan array binding signal (z-score),[1],-0.115
same,glycan array binding signal (z-score),Gal3S4S(b1-4)GlcNAc,-0.534
same,glycan array binding signal (z-score),Gal3S6S(b1-4)GlcNAc,-0.639
same,glycan array binding signal (z-score),Gal3S6S(b1-4)GlcNAc6S,-0.825
same,glycan array binding signal (z-score),Gal4S(b1-4)GlcNAc,-0.7
same,glycan array binding signal (z-score),Gal4S6S(b1-4)GlcNAc,-0.665
same,glycan array binding signal (z-score),Gal6S(b1-4)Glc,0.143
same,glycan array binding signal (z-score),Gal6S(b1-4)Glc6S,0.414
same,glycan array binding signal (z-score),Gal6S(b1-4)GlcNAc,-0.272
same,glycan array binding signal (z-score),Gal6S(b1-4)GlcNAc6S,-0.264
same,glycan array binding signal (z-score),GalNAc(a1-3)Gal,-0.815
same,glycan array binding signal (z-score),GalNAc(a1-3)GalNAc,-0.708
same,glycan array binding signal (z-score),GalNAc(b1-3)Gal,-0.537
same,glycan array binding signal (z-score),[2],-0.187
same,glycan array binding signal (z-score),GalNAc(b1-3)GalNAc,-0.261
same,glycan array binding signal (z-score),GalNAc(b1-4)GlcNAc,-0.05
same,glycan array binding signal (z-score),Glc(a1-4)Glc,-0.072
same,glycan array binding signal (z-score),Glc(a1-6)Glc(a1-6)Glc,-0.407
same,glycan array binding signal (z-score),Glc(b1-4)Glc,-0.671
same,glycan array binding signal (z-score),Glc(b1-6)Glc,0.507
same,glycan array binding signal (z-score),GlcA(b1-3)Gal,-0.093
same,glycan array binding signal (z-score),GlcA(b1-3)GlcNAc,0.082
same,glycan array binding signal (z-score),GlcA(b1-6)Gal,0.661
same,glycan array binding signal (z-score),[3],0.647
same,glycan array binding signal (z-score),[4],-0.566
same,glycan array binding signal (z-score),[5],0.546
same,glycan array binding signal (z-score),[6],-0.705
same,glycan array binding signal (z-score),GlcNAc(b1-3)Gal,-0.508
same,glycan array binding signal (z-score),[7],-0.876
same,glycan array binding signal (z-score),GlcNAc(b1-3)Gal(b1-4)Glc,0.443
same,glycan array binding signal (z-score),[8],-0.647
same,glycan array binding signal (z-score),[9],-0.556
same,glycan array binding signal (z-score),GlcNAc(b1-3)GalNAc,0.005
same,glycan array binding signal (z-score),GlcNAc(b1-3)Man,0.723
same,glycan array binding signal (z-score),[10],0.299
same,glycan array binding signal (z-score),[11],-0.357
same,glycan array binding signal (z-score),[12],-0.202
same,glycan array binding signal (z-score),[13],0.578
same,glycan array binding signal (z-score),GlcNAc(b1-4)GlcNAc,-0.412
same,glycan array binding signal (z-score),[14],-0.353
same,glycan array binding signal (z-score),[15],-0.065
same,glycan array binding signal (z-score),[16],0.386
same,glycan array binding signal (z-score),[17],-0.214

# Quoted from the listing (two entries):
binder,measurement,setting,value
B1,glycan array binding signal (z-score),[11],-0.357
same,glycan array binding signal (z-score),[12],-0.202
